The experiment concerns the target T1, GPR119-SmBiT (human) (UniProt Q8TDV5).
T1 sequence: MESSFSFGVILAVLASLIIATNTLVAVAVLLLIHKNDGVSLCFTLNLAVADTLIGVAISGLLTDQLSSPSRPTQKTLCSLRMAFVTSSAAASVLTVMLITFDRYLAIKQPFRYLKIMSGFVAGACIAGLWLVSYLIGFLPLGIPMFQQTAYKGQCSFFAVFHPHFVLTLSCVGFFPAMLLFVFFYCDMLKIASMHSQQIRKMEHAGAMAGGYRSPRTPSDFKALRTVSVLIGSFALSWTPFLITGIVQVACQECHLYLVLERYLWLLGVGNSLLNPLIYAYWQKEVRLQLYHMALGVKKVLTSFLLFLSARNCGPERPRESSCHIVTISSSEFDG
Kind of experiment: split reporter.

By UniProt entry, the sequences of proteins in these tests, tags left out.
UniProt P49407: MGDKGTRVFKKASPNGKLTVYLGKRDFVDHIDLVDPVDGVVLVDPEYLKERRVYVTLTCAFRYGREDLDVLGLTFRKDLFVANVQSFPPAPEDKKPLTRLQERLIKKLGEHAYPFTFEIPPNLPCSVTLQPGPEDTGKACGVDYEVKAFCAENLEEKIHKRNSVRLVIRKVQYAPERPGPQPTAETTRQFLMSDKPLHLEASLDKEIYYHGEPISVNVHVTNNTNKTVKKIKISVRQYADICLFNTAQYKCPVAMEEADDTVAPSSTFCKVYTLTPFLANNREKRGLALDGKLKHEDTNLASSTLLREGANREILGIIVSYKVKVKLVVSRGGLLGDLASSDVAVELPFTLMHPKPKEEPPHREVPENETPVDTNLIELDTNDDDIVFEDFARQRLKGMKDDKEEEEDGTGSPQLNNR

These are yes or no findings as the source states them, for the method shown. In cells and extracts the contact can be indirect. Some entries that bind do so weakly or less than the wild type.

Results on one substance are retold here after paper doi:10.1101/2025.03.24.645127.

As for “LgBiT-β-arrestin1 (from UniProt P49407 1-418)”, the binding entry is recorded as “binds”.
